Measurements taken from the supplement of paper PMC10849652.
The list shows a part of the results.

Protein sequences, listed by entry. Tags and fused reporters are not part of them. Lines headed by an entry give the natural chain unless they say otherwise; changes in a name come on top.
UniProt O96007: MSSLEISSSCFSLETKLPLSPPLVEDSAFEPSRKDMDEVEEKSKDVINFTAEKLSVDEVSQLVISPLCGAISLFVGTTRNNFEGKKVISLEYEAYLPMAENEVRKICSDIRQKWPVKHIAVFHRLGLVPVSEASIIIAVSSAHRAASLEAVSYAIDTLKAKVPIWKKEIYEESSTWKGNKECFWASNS
UniProt Q13015: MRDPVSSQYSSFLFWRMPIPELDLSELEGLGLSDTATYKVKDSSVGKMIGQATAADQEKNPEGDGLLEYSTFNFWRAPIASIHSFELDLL
UniProt Q9NZW5: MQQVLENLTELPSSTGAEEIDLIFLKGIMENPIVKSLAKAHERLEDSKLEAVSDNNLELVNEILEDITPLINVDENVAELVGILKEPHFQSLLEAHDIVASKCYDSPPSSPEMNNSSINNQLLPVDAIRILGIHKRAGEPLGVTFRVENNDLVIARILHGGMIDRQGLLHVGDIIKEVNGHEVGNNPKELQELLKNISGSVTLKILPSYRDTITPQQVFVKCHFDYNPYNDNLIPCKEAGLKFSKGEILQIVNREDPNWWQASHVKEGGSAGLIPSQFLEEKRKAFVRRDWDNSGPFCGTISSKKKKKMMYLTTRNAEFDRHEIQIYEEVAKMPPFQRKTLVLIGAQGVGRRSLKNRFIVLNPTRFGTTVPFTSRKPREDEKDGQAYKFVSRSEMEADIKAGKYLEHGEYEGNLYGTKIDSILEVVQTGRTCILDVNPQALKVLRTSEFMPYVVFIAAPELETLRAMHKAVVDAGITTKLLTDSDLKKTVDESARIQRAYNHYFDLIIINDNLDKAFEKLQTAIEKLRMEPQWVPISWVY
UniProt Q9BV20: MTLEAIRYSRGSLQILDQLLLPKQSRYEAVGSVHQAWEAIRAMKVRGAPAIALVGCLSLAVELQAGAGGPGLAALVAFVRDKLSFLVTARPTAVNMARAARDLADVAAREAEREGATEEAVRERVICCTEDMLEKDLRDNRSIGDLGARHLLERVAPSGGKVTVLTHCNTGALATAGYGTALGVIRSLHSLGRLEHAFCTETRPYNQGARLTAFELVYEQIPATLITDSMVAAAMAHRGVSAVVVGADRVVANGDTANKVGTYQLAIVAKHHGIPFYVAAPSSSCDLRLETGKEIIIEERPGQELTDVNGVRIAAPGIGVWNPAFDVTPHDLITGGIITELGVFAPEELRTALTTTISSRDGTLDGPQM
UniProt O95822: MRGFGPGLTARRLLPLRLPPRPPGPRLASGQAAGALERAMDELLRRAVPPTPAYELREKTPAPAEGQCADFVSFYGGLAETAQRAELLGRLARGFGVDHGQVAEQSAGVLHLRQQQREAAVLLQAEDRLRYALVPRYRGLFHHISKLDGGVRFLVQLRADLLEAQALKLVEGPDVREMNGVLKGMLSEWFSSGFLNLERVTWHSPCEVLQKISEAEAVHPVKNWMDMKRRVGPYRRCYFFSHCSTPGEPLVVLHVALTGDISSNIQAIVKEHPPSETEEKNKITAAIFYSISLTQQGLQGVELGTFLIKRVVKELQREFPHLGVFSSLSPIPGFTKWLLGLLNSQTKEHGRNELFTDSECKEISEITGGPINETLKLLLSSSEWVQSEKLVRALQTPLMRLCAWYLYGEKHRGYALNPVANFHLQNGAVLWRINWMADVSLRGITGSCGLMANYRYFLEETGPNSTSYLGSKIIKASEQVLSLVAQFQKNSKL
UniProt Q99797: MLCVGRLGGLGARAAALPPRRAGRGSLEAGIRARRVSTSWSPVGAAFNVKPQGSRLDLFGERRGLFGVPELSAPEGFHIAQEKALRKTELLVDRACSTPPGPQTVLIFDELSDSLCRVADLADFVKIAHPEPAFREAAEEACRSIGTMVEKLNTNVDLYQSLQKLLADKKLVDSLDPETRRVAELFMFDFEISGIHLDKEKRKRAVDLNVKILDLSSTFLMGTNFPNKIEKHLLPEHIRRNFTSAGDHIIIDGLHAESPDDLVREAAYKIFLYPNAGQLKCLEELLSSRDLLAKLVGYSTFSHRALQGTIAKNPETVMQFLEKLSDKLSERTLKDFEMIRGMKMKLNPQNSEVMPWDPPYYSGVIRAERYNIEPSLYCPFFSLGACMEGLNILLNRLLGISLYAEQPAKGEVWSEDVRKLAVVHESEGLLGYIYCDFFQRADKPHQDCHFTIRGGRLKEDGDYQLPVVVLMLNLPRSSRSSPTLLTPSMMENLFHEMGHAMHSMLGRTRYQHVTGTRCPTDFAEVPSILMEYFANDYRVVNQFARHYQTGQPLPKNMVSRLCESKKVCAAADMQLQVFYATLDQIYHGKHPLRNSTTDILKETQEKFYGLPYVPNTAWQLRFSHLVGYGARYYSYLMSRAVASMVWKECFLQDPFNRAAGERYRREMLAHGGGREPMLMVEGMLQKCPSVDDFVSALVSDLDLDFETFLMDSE
UniProt Q7RTP6, whole entry, looked up: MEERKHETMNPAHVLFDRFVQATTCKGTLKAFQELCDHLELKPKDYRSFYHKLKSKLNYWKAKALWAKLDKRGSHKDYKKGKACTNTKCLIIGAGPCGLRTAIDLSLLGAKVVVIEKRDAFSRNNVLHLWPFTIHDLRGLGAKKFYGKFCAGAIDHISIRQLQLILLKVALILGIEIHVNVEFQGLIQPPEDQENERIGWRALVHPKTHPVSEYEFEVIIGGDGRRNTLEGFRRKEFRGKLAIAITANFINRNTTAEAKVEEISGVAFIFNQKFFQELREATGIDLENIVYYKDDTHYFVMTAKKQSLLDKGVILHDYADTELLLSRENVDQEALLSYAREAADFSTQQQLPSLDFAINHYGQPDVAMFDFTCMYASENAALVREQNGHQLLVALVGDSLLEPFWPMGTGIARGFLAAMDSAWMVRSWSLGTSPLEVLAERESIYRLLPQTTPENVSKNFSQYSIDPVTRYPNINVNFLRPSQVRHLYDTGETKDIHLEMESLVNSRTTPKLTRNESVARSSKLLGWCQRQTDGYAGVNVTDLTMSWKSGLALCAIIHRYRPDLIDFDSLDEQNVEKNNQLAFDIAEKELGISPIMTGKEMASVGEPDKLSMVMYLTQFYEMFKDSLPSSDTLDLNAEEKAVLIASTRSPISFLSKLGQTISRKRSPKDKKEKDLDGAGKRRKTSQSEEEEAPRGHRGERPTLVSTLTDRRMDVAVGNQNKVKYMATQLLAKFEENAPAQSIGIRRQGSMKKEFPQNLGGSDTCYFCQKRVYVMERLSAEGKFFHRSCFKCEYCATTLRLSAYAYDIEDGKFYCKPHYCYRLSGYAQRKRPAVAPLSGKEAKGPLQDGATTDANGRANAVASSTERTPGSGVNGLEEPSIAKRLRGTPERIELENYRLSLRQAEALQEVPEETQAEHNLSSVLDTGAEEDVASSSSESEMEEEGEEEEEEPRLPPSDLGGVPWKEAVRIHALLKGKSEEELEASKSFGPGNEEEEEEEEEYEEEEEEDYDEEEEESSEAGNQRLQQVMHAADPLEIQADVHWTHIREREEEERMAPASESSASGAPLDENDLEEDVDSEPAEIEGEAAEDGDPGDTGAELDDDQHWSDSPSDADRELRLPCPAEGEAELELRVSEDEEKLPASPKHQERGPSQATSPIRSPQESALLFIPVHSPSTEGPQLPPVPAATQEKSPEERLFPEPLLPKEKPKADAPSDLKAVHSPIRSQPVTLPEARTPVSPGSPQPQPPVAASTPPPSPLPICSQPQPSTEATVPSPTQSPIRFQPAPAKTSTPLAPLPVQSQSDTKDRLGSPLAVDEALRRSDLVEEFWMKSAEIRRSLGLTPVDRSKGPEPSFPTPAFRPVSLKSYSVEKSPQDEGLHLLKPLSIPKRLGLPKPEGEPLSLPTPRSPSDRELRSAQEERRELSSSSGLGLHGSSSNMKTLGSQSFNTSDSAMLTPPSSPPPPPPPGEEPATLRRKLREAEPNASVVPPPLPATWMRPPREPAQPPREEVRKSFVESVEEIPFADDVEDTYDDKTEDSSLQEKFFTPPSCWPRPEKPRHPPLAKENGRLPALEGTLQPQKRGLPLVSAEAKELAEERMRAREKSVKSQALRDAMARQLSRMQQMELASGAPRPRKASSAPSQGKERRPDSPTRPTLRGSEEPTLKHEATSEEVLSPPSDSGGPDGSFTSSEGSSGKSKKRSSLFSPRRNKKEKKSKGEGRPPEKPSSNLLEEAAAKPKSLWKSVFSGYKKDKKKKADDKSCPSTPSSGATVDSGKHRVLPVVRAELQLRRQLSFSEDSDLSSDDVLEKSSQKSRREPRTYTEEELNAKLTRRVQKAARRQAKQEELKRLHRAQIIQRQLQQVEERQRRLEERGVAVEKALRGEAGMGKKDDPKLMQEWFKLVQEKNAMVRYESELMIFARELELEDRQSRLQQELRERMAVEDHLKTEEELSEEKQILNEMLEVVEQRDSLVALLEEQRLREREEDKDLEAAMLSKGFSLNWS
UniProt P51948: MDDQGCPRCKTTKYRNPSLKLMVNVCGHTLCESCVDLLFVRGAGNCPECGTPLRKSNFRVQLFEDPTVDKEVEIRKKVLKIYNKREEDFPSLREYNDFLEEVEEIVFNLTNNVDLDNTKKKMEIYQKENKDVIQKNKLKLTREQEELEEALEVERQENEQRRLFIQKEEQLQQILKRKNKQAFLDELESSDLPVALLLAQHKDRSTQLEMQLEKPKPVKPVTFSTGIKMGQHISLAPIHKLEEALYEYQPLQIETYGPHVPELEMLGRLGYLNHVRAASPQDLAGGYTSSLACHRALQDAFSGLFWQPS
UniProt Q9NQG6: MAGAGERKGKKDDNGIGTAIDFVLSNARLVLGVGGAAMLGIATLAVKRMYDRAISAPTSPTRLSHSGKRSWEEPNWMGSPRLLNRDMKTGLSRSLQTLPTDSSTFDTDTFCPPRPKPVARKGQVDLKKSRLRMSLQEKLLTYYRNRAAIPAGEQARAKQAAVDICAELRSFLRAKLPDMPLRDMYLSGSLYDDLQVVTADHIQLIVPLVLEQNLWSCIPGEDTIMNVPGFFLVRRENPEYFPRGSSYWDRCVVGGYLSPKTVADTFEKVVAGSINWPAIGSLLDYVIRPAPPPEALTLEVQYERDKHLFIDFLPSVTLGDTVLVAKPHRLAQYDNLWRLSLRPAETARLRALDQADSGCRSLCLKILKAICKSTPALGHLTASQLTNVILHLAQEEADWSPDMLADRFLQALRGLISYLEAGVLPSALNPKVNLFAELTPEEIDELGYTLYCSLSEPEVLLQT
UniProt Q14149: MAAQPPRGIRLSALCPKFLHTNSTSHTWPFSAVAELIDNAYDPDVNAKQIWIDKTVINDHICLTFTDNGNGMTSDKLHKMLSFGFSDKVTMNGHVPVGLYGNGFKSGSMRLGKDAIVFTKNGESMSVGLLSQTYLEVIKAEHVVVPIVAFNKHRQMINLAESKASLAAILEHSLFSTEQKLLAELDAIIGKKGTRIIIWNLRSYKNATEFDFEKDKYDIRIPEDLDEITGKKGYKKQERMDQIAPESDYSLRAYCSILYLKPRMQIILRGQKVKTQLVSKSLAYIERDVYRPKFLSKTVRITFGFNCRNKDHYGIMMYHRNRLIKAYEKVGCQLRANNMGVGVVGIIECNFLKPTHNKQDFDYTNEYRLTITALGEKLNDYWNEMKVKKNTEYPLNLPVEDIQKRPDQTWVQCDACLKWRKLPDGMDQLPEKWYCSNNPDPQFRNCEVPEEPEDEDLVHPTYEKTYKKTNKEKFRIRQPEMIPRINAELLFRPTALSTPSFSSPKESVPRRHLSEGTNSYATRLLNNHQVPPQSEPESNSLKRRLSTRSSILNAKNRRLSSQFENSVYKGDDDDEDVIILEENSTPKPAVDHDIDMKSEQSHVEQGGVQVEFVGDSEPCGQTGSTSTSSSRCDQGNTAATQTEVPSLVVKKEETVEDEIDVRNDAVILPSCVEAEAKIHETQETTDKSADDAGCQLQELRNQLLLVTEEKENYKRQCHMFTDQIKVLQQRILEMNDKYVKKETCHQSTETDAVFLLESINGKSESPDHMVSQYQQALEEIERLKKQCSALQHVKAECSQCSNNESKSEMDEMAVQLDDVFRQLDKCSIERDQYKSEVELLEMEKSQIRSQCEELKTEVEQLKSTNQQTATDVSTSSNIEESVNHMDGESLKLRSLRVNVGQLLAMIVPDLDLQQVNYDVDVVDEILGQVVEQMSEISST
UniProt Q8NB16: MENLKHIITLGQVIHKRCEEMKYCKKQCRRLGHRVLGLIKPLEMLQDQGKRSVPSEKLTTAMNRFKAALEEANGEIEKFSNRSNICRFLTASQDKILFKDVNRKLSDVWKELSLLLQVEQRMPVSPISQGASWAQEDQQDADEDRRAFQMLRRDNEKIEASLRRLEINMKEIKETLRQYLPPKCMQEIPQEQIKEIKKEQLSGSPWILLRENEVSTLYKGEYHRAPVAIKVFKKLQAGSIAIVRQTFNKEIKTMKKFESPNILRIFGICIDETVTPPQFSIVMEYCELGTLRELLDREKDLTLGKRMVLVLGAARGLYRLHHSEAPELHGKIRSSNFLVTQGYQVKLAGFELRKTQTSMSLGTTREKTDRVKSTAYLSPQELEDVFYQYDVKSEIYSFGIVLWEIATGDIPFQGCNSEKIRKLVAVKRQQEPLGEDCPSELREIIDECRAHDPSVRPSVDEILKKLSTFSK

What was measured:
Experiment in all cases: log2 fold change, soluble protein after heating vs DMSO (PISA); higher = thermal stabilisation; K562 cells, 10 uM, 30 min; active = over 0.2 and 3.5 SD of the protein, either way, in both replicates (recomputed)
[1] = compound: CS(=O)(=O)c1ccc(-c2cnc(N)c(C(=O)Nc3ccccc3)n2)cc1
Outline: (§1)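 Thermal stability values are relative to control samples and come from duplicates. They are expressed as log2 fold changes. For measurement, K562 cells (2×10^6 cells/mL) received 10 μM compound for 30 min, and aliquots were heated for 3 min over 48°C-58°C, pooled, and extracted at 4°C in PBS with 0.5% NP-40. Soluble protein, the supernatant after 21,000xg for 90 min, was quantified by TMTpro 16plex LC-MS/MS with equalised channel sums.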

crizotinib = compound: C[C@@H](Oc1cc(-c2cnn(C3CCNCC3)c2)cnc1N)c1c(Cl)ccc(F)c1Cl [crizotinib]
Outline: as §1

[2] = compound: C[C@@H]1COCCN1C2=NC(=NC(=C2)C3(CC3)S(=O)(=O)C)C4=C5C=CNC5=CC=C4
Outline: as §1

[3] = compound: C[C@H](C1=CC=C(C=C1)C(=O)NC2=C3C=CNC3=NC=C2)N
Outline: as §1

duvelisib = compound: C[C@H](Nc1ncnc2nc[nH]c12)c1cc2cccc(Cl)c2c(=O)n1-c1ccccc1 [duvelisib]
Outline: as §1

gandotinib = compound: Cc1cc(Nc2cc(CN3CCOCC3)c3nc(C)c(Cc4ccc(Cl)cc4F)n3n2)n[nH]1 [gandotinib]
Outline: as §1

tozasertib = compound: Cc1cc(Nc2cc(N3CCN(C)CC3)nc(Sc3ccc(NC(=O)C4CC4)cc3)n2)n[nH]1 [tozasertib]
Outline: as §1

[4] = compound: Cc1cc(SCc2sc(-c3ccc(C(F)(F)F)cc3)nc2C)ccc1OCC(=O)O
Outline: as §1

doramapimod = compound: Cc1ccc(-n2nc(C(C)(C)C)cc2NC(=O)Nc2ccc(OCCN3CCOCC3)c3ccccc23)cc1 [doramapimod]
Outline: as §1

ispinesib = compound: Cc1ccc(C(=O)N(CCCN)[C@@H](c2nc3cc(Cl)ccc3c(=O)n2Cc2ccccc2)C(C)C)cc1 [ispinesib]
Outline: as §1

| Target | log2 fold change [1] | log2 fold change (crizotinib) | log2 fold change [2] | log2 fold change [3] | log2 fold change (duvelisib) | log2 fold change (gandotinib) | log2 fold change (tozasertib) | log2 fold change [4] | log2 fold change (doramapimod) | log2 fold change (ispinesib) |
| --- | --- | --- | --- | --- | --- | --- | --- | --- | --- | --- |
| MRPL54 (UniProt Q6P161) | inactive: -0.038 | inactive: -0.212 | inactive: -0.061 | inactive: 0.21 | inactive: -0.08 | inactive: 0.057 | inactive: 0.043 | inactive: -0.059 | inactive: 0.1 | inactive: -0.26 |
| MRPL10 isoform 2 (UniProt Q7Z7H8) | inactive: 0.051 | inactive: 0.071 | inactive: 0.07 | inactive: 0.255 | inactive: -0.055 | inactive: 0.052 | inactive: -0.008 | inactive: 0.041 | inactive: 0.104 | inactive: -0.11 |
| MOCS2 (UniProt O96007) | inactive: -0.012 | inactive: 0.048 | inactive: 0.038 | inactive: 0.025 | inactive: 0.059 | inactive: -0.033 | inactive: 0.004 | inactive: -0.06 | inactive: 0.004 | inactive: -0.01 |
| MORF4L1 isoform 2 (UniProt Q9UBU8) | inactive: -0.05 | inactive: -0.076 | inactive: 0.106 | inactive: 0.026 | inactive: 0.02 | inactive: -0.023 | inactive: 0.031 | inactive: -0.036 | inactive: -0.03 | inactive: -0.012 |
| MRPL17 (UniProt Q9NRX2) | inactive: 0.066 | inactive: 0.009 | inactive: 0.004 | inactive: 0.227 | inactive: -0.053 | inactive: 0.012 | inactive: -0.036 | inactive: 0.086 | inactive: 0.056 | inactive: -0.156 |
| MRPL48 (UniProt Q96GC5) | inactive: 0.115 | inactive: 0.021 | inactive: -0.167 | inactive: 0.211 | inactive: -0.002 | inactive: -0.111 | inactive: -0.019 | inactive: 0.148 | inactive: 0.135 | inactive: -0.126 |
| MRPL44 (UniProt Q9H9J2) | inactive: 0.046 | inactive: 0.038 | inactive: -0.183 | inactive: 0.249 | inactive: -0.155 | inactive: 0.068 | inactive: 0.009 | inactive: 0.053 | inactive: 0.136 | inactive: -0.055 |
| MLLT11 (UniProt Q13015) | inactive: -0.149 | inactive: -0.083 | inactive: 0.307 | inactive: -0.116 | inactive: 0.294 | inactive: 0.028 | inactive: -0.091 | inactive: -0.099 | inactive: 0.009 | inactive: -0.022 |
| MRPL40 (UniProt Q9NQ50) | inactive: -0.047 | inactive: 0.025 | inactive: 0.017 | inactive: 0.017 | inactive: -0.02 | inactive: 0.105 | inactive: -0.066 | inactive: 0.093 | inactive: 0.054 | inactive: -0.031 |
| MPP6 (UniProt Q9NZW5) | inactive: 0.077 | inactive: -0.02 | inactive: 0.055 | inactive: -0.121 | inactive: -0.005 | inactive: 0.007 | inactive: -0.094 | inactive: 0.017 | inactive: 0.009 | inactive: -0.028 |
| MRPL20 (UniProt Q9BYC9) | inactive: 0.04 | inactive: 0.069 | inactive: -0.038 | inactive: 0.258 | inactive: -0.117 | inactive: 0 | inactive: 0.007 | inactive: 0.07 | inactive: 0.055 | inactive: -0.044 |
| MRI1 (UniProt Q9BV20) | inactive: 0.037 | inactive: 0.107 | inactive: 0.008 | inactive: -0.068 | inactive: 0.075 | inactive: 0.011 | inactive: 0.006 | inactive: -0.013 | inactive: -0.044 | inactive: 0.192 |
| MLYCD (UniProt O95822) | inactive: -0.013 | inactive: 0.054 | inactive: -0.012 | inactive: -0.06 | inactive: 0.027 | inactive: -0.031 | inactive: 0.037 | inactive: -0.068 | inactive: -0.008 | inactive: -0.052 |
| MOB1B isoform 2 (UniProt Q7L9L4) | inactive: 0.049 | inactive: -0.059 | inactive: 0.05 | inactive: -0.057 | inactive: 0.009 | inactive: -0.026 | inactive: 0 | inactive: -0.04 | inactive: 0.004 | inactive: -0.009 |
| MRPL53 (UniProt Q96EL3) | inactive: 0.026 | inactive: 0.108 | inactive: 0.002 | inactive: 0.163 | inactive: -0.087 | inactive: 0.101 | inactive: 0.035 | inactive: 0.073 | inactive: 0.142 | inactive: -0.107 |
| MIPEP (UniProt Q99797) | inactive: 0.013 | inactive: 0.113 | inactive: 0.086 | inactive: -0.052 | inactive: 0.023 | inactive: 0.023 | inactive: -0.039 | inactive: 0.066 | inactive: -0.024 | inactive: -0.025 |
| MRPL38 (UniProt Q96DV4) | inactive: 0.028 | inactive: 0.014 | inactive: -0.125 | inactive: 0.298 | inactive: -0.138 | inactive: 0.093 | inactive: -0.017 | inactive: 0.088 | inactive: 0.138 | inactive: -0.131 |
| MICAL3 (UniProt Q7RTP6) | inactive: 0.035 | inactive: -0.081 | inactive: 0.05 | inactive: 0.228 | inactive: 0.09 | inactive: 0 | inactive: -0.073 | inactive: 0.092 | inactive: -0.016 | inactive: -0.158 |
| MRPL49 (UniProt Q13405) | inactive: 0.035 | inactive: 0.13 | inactive: 0.043 | inactive: 0.183 | inactive: -0.09 | inactive: 0.091 | inactive: 0.067 | inactive: 0 | inactive: 0.086 | inactive: -0.141 |
| MNAT1 (UniProt P51948) | inactive: 0.007 | inactive: 0.02 | inactive: -0.068 | inactive: -0.036 | – | inactive: 0.024 | – | inactive: 0.005 | inactive: -0.057 | inactive: 0.089 |
| MIEF1 (UniProt Q9NQG6) | inactive: 0.088 | active: -0.31 | inactive: -0.005 | inactive: -0.046 | – | inactive: 0.095 | – | inactive: 0.065 | inactive: 0.007 | active: -0.489 |
| MORC3 (UniProt Q14149) | inactive: 0.058 | inactive: 0.052 | inactive: 0.197 | inactive: -0.106 | – | inactive: -0.017 | – | inactive: 0.122 | inactive: -0.067 | inactive: 0.041 |
| MRPL34 (UniProt Q9BQ48) | inactive: -0.004 | inactive: -0.045 | inactive: 0.077 | inactive: 0.179 | – | inactive: 0.164 | – | inactive: 0.051 | inactive: 0.152 | inactive: -0.284 |
| MIS12 (UniProt Q9H081) | inactive: 0.016 | inactive: -0.064 | inactive: -0.03 | inactive: -0.099 | – | inactive: -0.012 | – | inactive: 0.009 | inactive: -0.019 | inactive: -0.034 |
| MRPL33 (UniProt O75394) | inactive: -0.029 | inactive: -0.099 | inactive: 0.064 | inactive: 0.183 | inactive: -0.339 | – | inactive: -0.064 | inactive: 0.054 | inactive: 0.116 | inactive: -0.198 |
| MRPL1 (UniProt Q9BYD6) | inactive: -0.01 | inactive: -0.018 | inactive: -0.089 | inactive: 0.259 | inactive: -0.003 | inactive: 0.043 | inactive: 0.03 | inactive: 0.18 | inactive: 0.101 | inactive: 0.127 |
| MLKL (UniProt Q8NB16) | inactive: -0.059 | inactive: -0.05 | inactive: -0.016 | inactive: -0.077 | – | inactive: -0.16 | inactive: -0.045 | – | inactive: -0.023 | – |

For reference, some entries already given:

| Target | log2 fold change [1] | log2 fold change (crizotinib) | log2 fold change [2] | log2 fold change [3] | log2 fold change (duvelisib) | log2 fold change (gandotinib) | log2 fold change (tozasertib) | log2 fold change [4] | log2 fold change (doramapimod) | log2 fold change (ispinesib) |
| --- | --- | --- | --- | --- | --- | --- | --- | --- | --- | --- |
| MRPL17 (UniProt Q9NRX2) | inactive: 0.066 | inactive: 0.009 | inactive: 0.004 | inactive: 0.227 | inactive: -0.053 | inactive: 0.012 | inactive: -0.036 | inactive: 0.086 | inactive: 0.056 | inactive: -0.156 |
| MRPL48 (UniProt Q96GC5) | inactive: 0.115 | inactive: 0.021 | inactive: -0.167 | inactive: 0.211 | inactive: -0.002 | inactive: -0.111 | inactive: -0.019 | inactive: 0.148 | inactive: 0.135 | inactive: -0.126 |
